Reference: paper PMC11934079, “Structural and Mechanistic Characterization of the Flavin-Dependent Monooxygenase and Oxidase Involved in Sorbicillinoid Biosynthesis” (ACS Chemical Biology, 2025)
Results are given in words; binding and its absence hold for the method and conditions named.

The chains behind the UniProt entries cited, without tags or fusion partners.
UniProt B6HN76: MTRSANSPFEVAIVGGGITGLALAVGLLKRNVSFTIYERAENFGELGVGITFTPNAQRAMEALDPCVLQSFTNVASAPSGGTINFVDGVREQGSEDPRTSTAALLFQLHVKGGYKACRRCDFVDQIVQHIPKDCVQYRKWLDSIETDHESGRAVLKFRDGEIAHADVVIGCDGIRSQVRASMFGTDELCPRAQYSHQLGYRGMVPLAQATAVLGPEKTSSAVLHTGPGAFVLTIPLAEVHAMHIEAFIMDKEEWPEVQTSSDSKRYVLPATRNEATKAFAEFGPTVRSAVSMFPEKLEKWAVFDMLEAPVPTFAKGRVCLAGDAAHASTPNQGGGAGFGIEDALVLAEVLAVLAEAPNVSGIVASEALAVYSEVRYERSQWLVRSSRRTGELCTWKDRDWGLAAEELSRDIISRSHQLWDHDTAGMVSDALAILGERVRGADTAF

Molecular target: flavin-dependent monooxygenase SorC from Penicillium chrysogenum (Penicillium chrysogenum) (UniProt B6HN76)
Experiment: SEC + other: mass photometry; oligomeric state of the purified enzyme alone; conditions in the Supporting Information (Figures S5, S7, S13); both purified

binding: no binding
Substance: flavin-dependent monooxygenase SorC from Penicillium chrysogenum (from UniProt B6HN76 1-445) (enzyme)
